Data published in patent publication US20240262919A1 (SHANGHAITECH UNIVERSITY, published 2024).
No constants are given. Whether binding was seen depends on the method and setting. Some results given as binding are weak or reduced against the parent protein; the word gives no strength.

T1: antigen of the affinity maturation selections of antibody 3131 (IL-18Rβ, construct not named) (UniProt O95256)
T1 sequence (looked up): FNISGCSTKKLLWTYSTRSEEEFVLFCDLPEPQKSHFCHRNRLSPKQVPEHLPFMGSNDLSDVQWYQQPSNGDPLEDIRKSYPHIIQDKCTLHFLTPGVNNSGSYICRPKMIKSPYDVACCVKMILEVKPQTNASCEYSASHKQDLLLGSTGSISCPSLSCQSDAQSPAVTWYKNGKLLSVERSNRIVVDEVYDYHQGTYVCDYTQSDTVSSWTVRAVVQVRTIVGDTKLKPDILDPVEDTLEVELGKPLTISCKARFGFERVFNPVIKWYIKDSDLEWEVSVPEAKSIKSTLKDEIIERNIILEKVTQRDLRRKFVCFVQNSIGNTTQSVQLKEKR

B1: 3131 AM2-O-05 (Fab, V domains shown)
VH: EVQLVESGGGLVQPGGSLRLSCAASGFDLYYSSMHWVRQAPGKGLEWVASIYSSSGDTHYADSVKGRFTISADTSKNTAYLQMNSLRAEDTAVYYCARSSFSHGYGWYGLDYWGQGTLVTVSS
VL: DIQMTQSPSSLSASVGDRVTITCRASQSVSSAVAWYQQKPGKAPRLLIYSASSLYSGVPSRFSGSRSGTDFTLTISSLQPEDFATYYCQQYGYHYAGLITFGQGTKVEIK
B2: 3131 AM2-O-06 (Fab, V domains shown)
VH: EVQLVESGGGLVQPGGSLRLSCAASGFSLYYSSMHWVRQAPGKGLEWVASIYSSSGDTHYADSVKGRFTISADTSKNTAYLQMNSLRAEDTAVYYCARSSFSHGYGWYGLDYWGQGTLVTVSS
VL: DIQMTQSPSSLSASVGDRVTITCRASQSVSSAVAWYQQKPGKAPRLLIYSASSLYSGVPSRFSGSRSGTDFTLTISSLQPEDFATYYCQQYGYHYAGLITFGQGTKVEIK
B3: 3131 AM2-O-07 (Fab, V domains shown)
VH: EVQLVESGGGLVQPGGSLRLSCAASGFNLYYSSMHWVRQAPGKGLEWVASIYSSGGSTSYADSVKGRFTISADTSKNTAYLQMNSLRAEDTAVYYCARSSFSHGYGWYGLDYWGQGTLVTVSS
VL: DIQMTQSPSSLSASVGDRVTITCRASQSVSSAVAWYQQKPGKAPRLLIYGASSLYSGVPSRFSGSRSGTDFTLTISSLQPEDFATYYCQQYGYHYAGLITFGQGTKVEIK
B4: 3131 AM2-O-08 (Fab, V domains shown)
VH: EVQLVESGGGLVQPGGSLRLSCAASGFTLYYSSMHWVRQAPGKGLEWVASIYSSGGSTSYADSVKGRFTISADTSKNTAYLQMNSLRAEDTAVYYCARSSFSHGYGWYGLDYWGQGTLVTVSS
VL: DIQMTQSPSSLSASVGDRVTITCRASQSVSSAVAWYQQKPGKAPRLLIYGASSLYSGVPSRFSGSRSGTDFTLTISSLQPEDFATYYCQQYGYHYAGLITFGQGTKVEIK
B5: 3131 AM2-O-09 (Fab, V domains shown)
VH: EVQLVESGGGLVQPGGSLRLSCAASGFDLYYSSMHWVRQAPGKGLEWVASIYSSGGSTSYADSVKGRFTISADTSKNTAYLQMNSLRAEDTAVYYCARSSFSHGYGWYGLDYWGQGTLVTVSS
VL: DIQMTQSPSSLSASVGDRVTITCRASQSVSSAVAWYQQKPGKAPRLLIYGASSLYSGVPSRFSGSRSGTDFTLTISSLQPEDFATYYCQQYGYHYAGLITFGQGTKVEIK
B6: 3131 AM2-O-10 (Fab, V domains shown)
VH: EVQLVESGGGLVQPGGSLRLSCAASGFSLYYSSMHWVRQAPGKGLEWVASIYSSGGSTSYADSVKGRFTISADTSKNTAYLQMNSLRAEDTAVYYCARSSFSHGYGWYGLDYWGQGTLVTVSS
VL: DIQMTQSPSSLSASVGDRVTITCRASQSVSSAVAWYQQKPGKAPRLLIYGASSLYSGVPSRFSGSRSGTDFTLTISSLQPEDFATYYCQQYGYHYAGLITFGQGTKVEIK
B7: 3131 AM2-O-11 (Fab, V domains shown)
VH: EVQLVESGGGLVQPGGSLRLSCAASGFNLYYSSMHWVRQAPGKGLEWVASIYSSSGDTHYADSVKGRFTISADTSKNTAYLQMNSLRAEDTAVYYCARSSFSHGYGWYGLDYWGQGTLVTVSS
VL: DIQMTQSPSSLSASVGDRVTITCRASQSVSSAVAWYQQKPGKAPRLLIYGASSLYSGVPSRFSGSRSGTDFTLTISSLQPEDFATYYCQQYGYHYAGLITFGQGTKVEIK
B8: 3131 AM2-O-12 (Fab, V domains shown)
VH: EVQLVESGGGLVQPGGSLRLSCAASGFTLYYSSMHWVRQAPGKGLEWVASIYSSSGDTHYADSVKGRFTISADTSKNTAYLQMNSLRAEDTAVYYCARSSFSHGYGWYGLDYWGQGTLVTVSS
VL: DIQMTQSPSSLSASVGDRVTITCRASQSVSSAVAWYQQKPGKAPRLLIYGASSLYSGVPSRFSGSRSGTDFTLTISSLQPEDFATYYCQQYGYHYAGLITFGQGTKVEIK
B9: 3131 AM2-O-13 (Fab, V domains shown)
VH: EVQLVESGGGLVQPGGSLRLSCAASGFDLYYSSMHWVRQAPGKGLEWVASIYSSSGDTHYADSVKGRFTISADTSKNTAYLQMNSLRAEDTAVYYCARSSFSHGYGWYGLDYWGQGTLVTVSS
VL: DIQMTQSPSSLSASVGDRVTITCRASQSVSSAVAWYQQKPGKAPRLLIYGASSLYSGVPSRFSGSRSGTDFTLTISSLQPEDFATYYCQQYGYHYAGLITFGQGTKVEIK
B10: 3131 AM2-O-14 (Fab, V domains shown)
VH: EVQLVESGGGLVQPGGSLRLSCAASGFSLYYSSMHWVRQAPGKGLEWVASIYSSSGDTHYADSVKGRFTISADTSKNTAYLQMNSLRAEDTAVYYCARSSFSHGYGWYGLDYWGQGTLVTVSS
VL: DIQMTQSPSSLSASVGDRVTITCRASQSVSSAVAWYQQKPGKAPRLLIYGASSLYSGVPSRFSGSRSGTDFTLTISSLQPEDFATYYCQQYGYHYAGLITFGQGTKVEIK
B11: 3131 AM2-O-15 (Fab, V domains shown)
VH: EVQLVESGGGLVQPGGSLRLSCAASGFNLYYSSMHWVRQAPGKGLEWVASIYSSGGSTSYADSVKGRFTISADTSKNTAYLQMNSLRAEDTAVYYCARSSFSHGYGWYGLDYWGQGTLVTVSS
VL: DIQMTQSPSSLSASVGDRVTITCRASQSVSSAVAWYQQKPGKAPRLLIYSASSLYSGVPSRFSGSRSGTDFTLTISSLQPEDFATYYCQQYGYHDAGLITFGQGTKVEIK
B12: 3131 AM2-O-16 (Fab, V domains shown)
VH: EVQLVESGGGLVQPGGSLRLSCAASGFTLYYSSMHWVRQAPGKGLEWVASIYSSGGSTSYADSVKGRFTISADTSKNTAYLQMNSLRAEDTAVYYCARSSFSHGYGWYGLDYWGQGTLVTVSS
VL: DIQMTQSPSSLSASVGDRVTITCRASQSVSSAVAWYQQKPGKAPRLLIYSASSLYSGVPSRFSGSRSGTDFTLTISSLQPEDFATYYCQQYGYHDAGLITFGQGTKVEIK
B13: 3131 AM2-O-17 (Fab, V domains shown)
VH: EVQLVESGGGLVQPGGSLRLSCAASGFDLYYSSMHWVRQAPGKGLEWVASIYSSGGSTSYADSVKGRFTISADTSKNTAYLQMNSLRAEDTAVYYCARSSFSHGYGWYGLDYWGQGTLVTVSS
VL: DIQMTQSPSSLSASVGDRVTITCRASQSVSSAVAWYQQKPGKAPRLLIYSASSLYSGVPSRFSGSRSGTDFTLTISSLQPEDFATYYCQQYGYHDAGLITFGQGTKVEIK
B14: 3131 AM2-O-18 (Fab, V domains shown)
VH: EVQLVESGGGLVQPGGSLRLSCAASGFSLYYSSMHWVRQAPGKGLEWVASIYSSGGSTSYADSVKGRFTISADTSKNTAYLQMNSLRAEDTAVYYCARSSFSHGYGWYGLDYWGQGTLVTVSS
VL: DIQMTQSPSSLSASVGDRVTITCRASQSVSSAVAWYQQKPGKAPRLLIYSASSLYSGVPSRFSGSRSGTDFTLTISSLQPEDFATYYCQQYGYHDAGLITFGQGTKVEIK
B15: 3131 AM2-O-19 (Fab, V domains shown)
VH: EVQLVESGGGLVQPGGSLRLSCAASGFNLYYSSMHWVRQAPGKGLEWVASIYSSSGDTHYADSVKGRFTISADTSKNTAYLQMNSLRAEDTAVYYCARSSFSHGYGWYGLDYWGQGTLVTVSS
VL: DIQMTQSPSSLSASVGDRVTITCRASQSVSSAVAWYQQKPGKAPRLLIYSASSLYSGVPSRFSGSRSGTDFTLTISSLQPEDFATYYCQQYGYHDAGLITFGQGTKVEIK
B16: 3131 AM2-O-20 (Fab, V domains shown)
VH: EVQLVESGGGLVQPGGSLRLSCAASGFTLYYSSMHWVRQAPGKGLEWVASIYSSSGDTHYADSVKGRFTISADTSKNTAYLQMNSLRAEDTAVYYCARSSFSHGYGWYGLDYWGQGTLVTVSS
VL: DIQMTQSPSSLSASVGDRVTITCRASQSVSSAVAWYQQKPGKAPRLLIYSASSLYSGVPSRFSGSRSGTDFTLTISSLQPEDFATYYCQQYGYHDAGLITFGQGTKVEIK
B17: 3131 AM2-O-21 (Fab, V domains shown)
VH: EVQLVESGGGLVQPGGSLRLSCAASGFDLYYSSMHWVRQAPGKGLEWVASIYSSSGDTHYADSVKGRFTISADTSKNTAYLQMNSLRAEDTAVYYCARSSFSHGYGWYGLDYWGQGTLVTVSS
VL: DIQMTQSPSSLSASVGDRVTITCRASQSVSSAVAWYQQKPGKAPRLLIYSASSLYSGVPSRFSGSRSGTDFTLTISSLQPEDFATYYCQQYGYHDAGLITFGQGTKVEIK
B18: 3131 AM2-O-22 (Fab, V domains shown)
VH: EVQLVESGGGLVQPGGSLRLSCAASGFSLYYSSMHWVRQAPGKGLEWVASIYSSSGDTHYADSVKGRFTISADTSKNTAYLQMNSLRAEDTAVYYCARSSFSHGYGWYGLDYWGQGTLVTVSS
VL: DIQMTQSPSSLSASVGDRVTITCRASQSVSSAVAWYQQKPGKAPRLLIYSASSLYSGVPSRFSGSRSGTDFTLTISSLQPEDFATYYCQQYGYHDAGLITFGQGTKVEIK
B19: 3131 AM2-O-23 (Fab, V domains shown)
VH: EVQLVESGGGLVQPGGSLRLSCAASGFNLYYSSMHWVRQAPGKGLEWVASIYSSGGSTSYADSVKGRFTISADTSKNTAYLQMNSLRAEDTAVYYCARSSFSHGYGWYGLDYWGQGTLVTVSS
VL: DIQMTQSPSSLSASVGDRVTITCRASQSVSSAVAWYQQKPGKAPRLLIYGASSLYSGVPSRFSGSRSGTDFTLTISSLQPEDFATYYCQQYGYHDAGLITFGQGTKVEIK
B20: 3131 AM2-O-24 (Fab, V domains shown)
VH: EVQLVESGGGLVQPGGSLRLSCAASGFTLYYSSMHWVRQAPGKGLEWVASIYSSGGSTSYADSVKGRFTISADTSKNTAYLQMNSLRAEDTAVYYCARSSFSHGYGWYGLDYWGQGTLVTVSS
VL: DIQMTQSPSSLSASVGDRVTITCRASQSVSSAVAWYQQKPGKAPRLLIYGASSLYSGVPSRFSGSRSGTDFTLTISSLQPEDFATYYCQQYGYHDAGLITFGQGTKVEIK

molecular target: T1, antigen of the affinity maturation selections of antibody 3131 (IL-18Rβ, construct not named); test: affinity-based solution-phase phage display selection, decreasing antigen concentration

binding, binds:
B1
B2
B3
B4
B5
B6
B7
B8
B9
B10
B11
B12
B13
B14
B15
B16
B17
B18
B19
B20
